From patent US8895504B2, “Amylin derivatives” (priority 2008, dated 2014)
At least one peptide structure holds a part that was inferred or is arguable (an end, a ring closure or a residue). At least one compound was matched to its structure with a doubt left. Some compounds share one wording; it may come from a single statement. *1 amine or outer side, *2 acyl side, *3 side chain or, on linkers, in order; H or OH if unused. Where a SMILES comes first, the peptide text is derived from it. Bridges are numbered along the chain shown (N, C = ends). The star is where a group is joined. C20 diacid = O=C(O)CCCCCCCCCCCCCCCCCCC(=O)*; C18 diacid = O=C(O)CCCCCCCCCCCCCCCCC(=O)*; γGlu = O=C(O)[C@H](CCC(=O)[*:2])N[*:1]; AEEA = NCCOCCOCC(=O)O

Test system: food intake
Test: Pharmacological Assay (I) - efficacy testing on appetite, ad libitum fed rat model
Type: in vivo, Sprague Dawley (SD) rats
Conditions: 30 nmol/kg vs vehicle, ad libitum fed rats, n=5-7, 0-48 hours
Description: Assays Pharmacological Assay (I)—Experimental Protocol for Efficacy Testing on Appetite with an Amylin Derivative, Using an Ad Libitum Fed Rat Model. Sprague Dawley (SD) rats from Taconic Europe, Denmark are used for the experiments. The rats have a body weight 200-250 g at the start of experiment. The rats arrive at least 10-14 days before start of experiment to allow acclimatization to experimental settings. During this period the animals are handled at least 2 times. After arrival rats are housed individually for one week in a reversed light/dark phase (meaning that lights are off during daytime and on during nighttime) for two weeks. Since rats are normally active and eat their major part of their daily food intake during the dark period, rats are dosed in the morning right before lights are turned off. This set-up results in the lowest data variation and highest test sensitivity. The experiment is conducted in the rats' home cages and rats have free access to food and water throughout the acclimatization period and the experiment period. Each dose of derivative is tested in a group of 5-8 rats. A vehicle group of 6-8 rats is included in each set of testing. Rats are dosed once according to body weight with a 0.01-3 mg/kg solution administered intraperitoneally (ip), orally (po) or subcutaneously (sc). The time of dosing is recorded for each group. After dosing, the rats are returned to their home cages, where they then have access to food and water. The food consumption is recorded individually continuously by on-line registration or manually every hour for 7 hours, and then after 24 h and sometimes 48 h. At the end of the experimental session, the animals are euthanized. The individual data are recorded in Microsoft excel sheets. Outliers are excluded after applying the Grubbs statistical evaluation test for outliers, and the result is presented graphically using the GraphPad Prism program.

Row | Compound | food intake over a period of 48 hours
1 | CC[C@H](C)[C@H](NC(=O)[C@@H]1CCCN1C(=O)CNC(=O)[C@H](Cc1ccccc1)NC(=O)[C@H](CC(N)=O)NC(=O)[C@H](CC(N)=O)NC(=O)[C@H](CO)NC(=O)[C@H](CO)NC(=O)[C@H](Cc1c[nH]cn1)NC(=O)[C@H](Cc1c[nH]cn1)NC(=O)[C@H](CC(C)C)NC(=O)[C@H](Cc1ccccc1)NC(=O)[C@H](CC(N)=O)NC(=O)[C@H](C)NC(=O)[C@H](CC(C)C)NC(=O)[C@H](CCCNC(=N)N)NC(=O)[C@H](CCC(N)=O)NC(=O)[C@@H](NC(=O)[C@H](C)NC(=O)[C@@H]1CSSC[C@H](NC(=O)[C@H](Cc2c[nH]cn2)NC(=O)CC[C@H](NC(=O)CCCCCCCCCCCCCCCCC(=O)O)C(=O)O)C(=O)N[C@@H](CC(N)=O)C(=O)N[C@@H]([C@@H](C)O)C(=O)N[C@@H](C)C(=O)N[C@@H]([C@@H](C)O)C(=O)N1)[C@@H](C)O)C(=O)N[C@@H](CC(C)C)C(=O)N1CCC[C@H]1C(=O)N1CCC[C@H]1C(=O)N[C@H](C(=O)N[C@@H](CC(N)=O)C(=O)N[C@H](C(=O)NCC(=O)N[C@@H](CO)C(=O)N[C@@H](CC(N)=O)C(=O)N[C@H](C(=O)N[C@@H](Cc1ccc(O)cc1)C(N)=O)[C@@H](C)O)C(C)C)[C@@H](C)O [Example 32, N-alpha-[(S)-4-Carboxy-4-(17-carboxyheptadecanoylamino)butyryl]-[His1,His17]-pramlintide] ({C18 diacid-γGlu}-HCNTATCATQRLANFLHHSSNNFGPILPPTNVGSNTY-NH2; disulfide 2-7) | effectively reducing food intake
2 | CC[C@H](C)[C@H](NC(=O)[C@@H]1CCCN1C(=O)CNC(=O)[C@H](Cc1ccccc1)NC(=O)[C@H](CC(N)=O)NC(=O)[C@H](CC(N)=O)NC(=O)[C@H](CO)NC(=O)[C@H](CO)NC(=O)[C@H](Cc1c[nH]cn1)NC(=O)[C@H](Cc1c[nH]cn1)NC(=O)[C@H](CC(C)C)NC(=O)[C@H](Cc1ccccc1)NC(=O)[C@H](CC(N)=O)NC(=O)[C@H](C)NC(=O)[C@H](CC(C)C)NC(=O)[C@H](CCCNC(=N)N)NC(=O)[C@H](CCC(N)=O)NC(=O)[C@@H](NC(=O)[C@H](C)NC(=O)[C@@H]1CSSC[C@H](NC(=O)[C@H](CCCNC(=N)N)NC(=O)[C@H](Cc2c[nH]cn2)NC(=O)[C@H](Cc2c[nH]cn2)NC(=O)COCCOCCNC(=O)CC[C@H](NC(=O)CCCCCCCCCCCCCCCCCCC(=O)O)C(=O)O)C(=O)N[C@@H](CC(N)=O)C(=O)N[C@@H]([C@@H](C)O)C(=O)N[C@@H](C)C(=O)N[C@@H]([C@@H](C)O)C(=O)N1)[C@@H](C)O)C(=O)N[C@@H](CC(C)C)C(=O)N1CCC[C@H]1C(=O)N1CCC[C@H]1C(=O)N[C@H](C(=O)N[C@@H](CC(N)=O)C(=O)N[C@H](C(=O)NCC(=O)N[C@@H](CO)C(=O)N[C@@H](CC(N)=O)C(=O)N[C@H](C(=O)N[C@@H](Cc1ccc(O)cc1)C(N)=O)[C@@H](C)O)C(C)C)[C@@H](C)O [Example 56, N-alpha-[2-(2-{2-[4-(S)-Carboxy-4-(19-carboxynonadecanoylamino)butyrylamino]ethoxy}ethoxy)acetyl]-His-His-[Arg1,His17]-pramlintide] ({C20 diacid-γGlu-AEEA}-HHRCNTATCATQRLANFLHHSSNNFGPILPPTNVGSNTY-NH2; disulfide 4-9) | effectively reducing food intake
3 | CC[C@H](C)[C@H](NC(=O)[C@@H]1CCCN1C(=O)CNC(=O)[C@H](Cc1ccccc1)NC(=O)[C@H](CC(N)=O)NC(=O)[C@H](CC(N)=O)NC(=O)[C@H](CO)NC(=O)[C@H](CO)NC(=O)[C@H](Cc1c[nH]cn1)NC(=O)[C@H](Cc1c[nH]cn1)NC(=O)[C@H](CC(C)C)NC(=O)[C@H](Cc1ccccc1)NC(=O)[C@H](CC(N)=O)NC(=O)[C@H](C)NC(=O)[C@H](CC(C)C)NC(=O)[C@H](CCCNC(=N)N)NC(=O)[C@H](CCC(N)=O)NC(=O)[C@@H](NC(=O)[C@H](C)NC(=O)[C@@H]1CSSC[C@H](NC(=O)[C@H](CCCCN)NC(=O)CC[C@H](NC(=O)CCCCCCCCCCCCCCCCCCC(=O)O)C(=O)O)C(=O)N[C@@H](CC(N)=O)C(=O)N[C@@H]([C@@H](C)O)C(=O)N[C@@H](C)C(=O)N[C@@H]([C@@H](C)O)C(=O)N1)[C@@H](C)O)C(=O)N[C@@H](CC(C)C)C(=O)N1CCC[C@H]1C(=O)N1CCC[C@H]1C(=O)N[C@H](C(=O)N[C@@H](CC(N)=O)C(=O)N[C@H](C(=O)NCC(=O)N[C@@H](CO)C(=O)N[C@@H](CC(N)=O)C(=O)N[C@H](C(=O)N[C@@H](Cc1ccc(O)cc1)C(N)=O)[C@@H](C)O)C(C)C)[C@@H](C)O [Example 5, N-alpha-[(S)-4-Carboxy-4-(19-carboxynonadecanoylamino)butyryl]-[His17]-pramlintide] ({C20 diacid-γGlu}-KCNTATCATQRLANFLHHSSNNFGPILPPTNVGSNTY-NH2; disulfide 2-7) | effectively reducing food intake
4 | CC[C@H](C)[C@H](NC(=O)[C@@H]1CCCN1C(=O)CNC(=O)[C@H](Cc1ccccc1)NC(=O)[C@H](CC(N)=O)NC(=O)[C@H](CC(N)=O)NC(=O)[C@H](CO)NC(=O)[C@H](CO)NC(=O)[C@H](Cc1c[nH]cn1)NC(=O)[C@H](Cc1c[nH]cn1)NC(=O)[C@H](CC(C)C)NC(=O)[C@H](Cc1ccccc1)NC(=O)[C@H](CC(N)=O)NC(=O)[C@H](C)NC(=O)[C@H](CC(C)C)NC(=O)[C@H](CCCNC(=N)N)NC(=O)[C@H](CCC(N)=O)NC(=O)[C@@H](NC(=O)[C@H](C)NC(=O)[C@@H]1CSSC[C@H](NC(=O)[C@H](CCCNC(=N)N)NC(=O)[C@H](Cc2c[nH]cn2)NC(=O)[C@H](Cc2c[nH]cn2)NC(=O)[C@H](CCC(=O)O)NC(=O)CC[C@H](NC(=O)CCCCCCCCCCCCCCCCCCC(=O)O)C(=O)O)C(=O)N[C@@H](CC(N)=O)C(=O)N[C@@H]([C@@H](C)O)C(=O)N[C@@H](C)C(=O)N[C@@H]([C@@H](C)O)C(=O)N1)[C@@H](C)O)C(=O)N[C@@H](CC(C)C)C(=O)N1CCC[C@H]1C(=O)N1CCC[C@H]1C(=O)N[C@H](C(=O)N[C@@H](CC(N)=O)C(=O)N[C@H](C(=O)NCC(=O)N[C@@H](CO)C(=O)N[C@@H](CC(N)=O)C(=O)N[C@H](C(=O)N[C@@H](Cc1ccc(O)cc1)C(N)=O)[C@@H](C)O)C(C)C)[C@@H](C)O [Example 67, N-alpha-[(S)-4-Carboxy-4-(19-carboxynonadecanoylamino)butyryl]-Glu-His-His-[Arg1,His17]-pramlintide] ({C20 diacid-γGlu}-EHHRCNTATCATQRLANFLHHSSNNFGPILPPTNVGSNTY-NH2; disulfide 5-10) | effectively reducing food intake
5 | CC(C)C[C@H](NC(=O)[C@H](CCCNC(=N)N)NC(=O)[C@H](CCC(N)=O)NC(=O)[C@@H](NC(=O)[C@H](C)NC(=O)[C@@H]1CSSC[C@H](NC(=O)[C@H](CCC(=O)O)NC(=O)[C@H](CCCNC(=N)N)NC(=O)[C@H](CCC(=O)O)NC(=O)CC[C@H](NC(=O)CCCCCCCCCCCCCCCCCCC(=O)O)C(=O)O)C(=O)N[C@@H](CC(N)=O)C(=O)N[C@@H]([C@@H](C)O)C(=O)N[C@@H](C)C(=O)N[C@@H]([C@@H](C)O)C(=O)N1)[C@@H](C)O)C(=O)N[C@@H](C)C(=O)N[C@@H](CC(N)=O)C(=O)N[C@@H](Cc1ccccc1)C(=O)N[C@@H](CC(C)C)C(=O)N[C@@H](Cc1c[nH]cn1)C(=O)N[C@@H](Cc1c[nH]cn1)C(=O)N[C@@H](CO)C(=O)N[C@@H](CO)C(=O)N[C@@H](CCC(N)=O)C(=O)N[C@@H](CC(N)=O)C(=O)N[C@@H](Cc1ccccc1)C(=O)NCC(=O)N[C@@H](C)C(=O)N1CCC[C@H]1C(=O)N[C@@H](CC(C)C)C(=O)N[C@@H](CO)C(=O)N[C@@H](CO)C(=O)N[C@H](C(=O)N[C@@H](CC(N)=O)C(=O)N[C@H](C(=O)NCC(=O)N[C@@H](CO)C(=O)N[C@@H](CC(N)=O)C(=O)N[C@H](C(=O)N[C@@H](Cc1ccc(O)cc1)C(N)=O)[C@@H](C)O)C(C)C)[C@@H](C)O [Example 41, N-alpha-[(S)-4-Carboxy-4-(19-carboxynonadecanoylamino)butyryl]-Glu-Arg-[Glu1,His17,Gln21,Ala25,Pro26,Ser28,Ser29]-pramlintide] ({C20 diacid-γGlu}-ERECNTATCATQRLANFLHHSSQNFGAPLSSTNVGSNTY-NH2; disulfide 4-9) | effectively reducing food intake
